Experimental data taken from patent publication US10744141B2, “Compositions and methods for treating cancer” (CASE WESTERN RESERVE UNIVERSITY, priority 2015, dated 2020).
For at least one compound, name, drawing or mass did not settle the structure.

Test system: MOLT4 cells
Conditions: MOLT4 T-ALL cells, Dasatinib combined with SMAP

For `Cc1nc(Nc2ncc(C(=O)Nc3c(C)cccc3Cl)s2)cc(N2CCN(CCO)CC2)n1` [Dasatinib], the “Annexin/PI positivity (apoptosis)” value was “potentiates the Annexin/PI positivity”.
